From US20220186223, “T-LYMPHOCYTE BINDING APTAMERS” (Aummune Ltd., published 2022)
For part of these data: At least one result comes from cells or an extract, where the contact may be indirect. For part of these data: For at least one entry, the source does not settle the construct or the ends of the probe. For part of these data: A negative result means that nothing was seen under these conditions.

Chains of the proteins cited; added tags and fusions are not shown. Lines headed by an entry give the natural chain unless they say otherwise; changes in a name come on top.
UniProt P07766: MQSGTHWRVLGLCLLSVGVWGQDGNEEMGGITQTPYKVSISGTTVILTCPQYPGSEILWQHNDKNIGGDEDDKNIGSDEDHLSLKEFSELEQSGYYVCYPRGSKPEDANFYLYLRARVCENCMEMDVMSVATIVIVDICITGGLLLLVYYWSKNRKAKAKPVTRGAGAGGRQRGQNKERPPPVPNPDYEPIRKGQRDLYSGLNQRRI

Tests used:
[1] = test system: Human IgG1 isotype control (Homo sapiens); experiment: binding assay; conditions: HPLC size exclusion, negative control protein, binding to CD3e described as specific, purified recombinant protein, protein details: InVivoMAb BE0297, label: Cy5 via hybridised CpG'-Cy5 complementary strand, single-stranded DNA
[2] = target: CD3 epsilon (native CD3/TCR complex on Jurkat T cells) (Homo sapiens) (UniProt P07766); experiment: flow cytometry; conditions: synthesized with 5' CpG motif having 5 PS linkages (extension not in ref), Jurkat at 4 C and 37 C, protein on the cell surface, label: Cy5 via hybridised CpG'-Cy5 complementary strand, single-stranded DNA
[3] = target: CD3 epsilon (native CD3/TCR complex on primary Pan T cells) (Homo sapiens) (UniProt P07766); experiment: flow cytometry; conditions: PS at first 5 linkages of 5' CpG motif; primary Pan T cells at 37 C under blocking conditions; no binding to Pan B cells; protein on the cell surface; label: Cy5 via hybridised CpG'-Cy5 complementary strand; single-stranded DNA

## CATTTCATAGGGCTGCTTAGGATTGCGAAGGTAATGCCAG [CS7]
[1]; synthesized with 5' CpG motif having 5 PS linkages (extension not in ref)
  binding result: no binding
[2]; differential versus Kasumi-1 and Daudi controls, lower than CS6 at 37 C
  binding result: binds

## CTTTTAGGTCTGCTTAGGATTGCGAAAAAAG [CS8c (CS8cut)]
[1]; synthesized with 5' CpG motif having 5 PS linkages (extension not in ref), variant of CS8
  binding result: no binding
[2]; less specific than CS6 and CS7, variant of CS8
  binding result: binds

## TCGTCGTCGCGGTTCGCGTCCGTATCGTATAAGGGCTGCTTAGGATTGCGATAATACGGTCAA [CS6 (5PS-CpG-CS6)]
[1]; PS at first 5 linkages of 5' CpG motif
  binding result: no binding
[3]
  binding result: binds
